This note sets out measurements from paper PMC4357697.

By UniProt entry, the sequences of proteins in these tests, tags left out. Where a name states a change or a piece, a line headed by the entry shows the natural chain unless it says otherwise.
UniProt O31418: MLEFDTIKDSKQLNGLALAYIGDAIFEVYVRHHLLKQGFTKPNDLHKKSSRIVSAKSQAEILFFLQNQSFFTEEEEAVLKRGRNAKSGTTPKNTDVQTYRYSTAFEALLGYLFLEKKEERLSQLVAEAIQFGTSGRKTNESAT

This series has as its target BsMiniIII (Bacillus subtilis ATCC 23857) (UniProt O31418). As to the kind of experiment: filter binding. To be noted: 1 mM Ca2+; Filter binding: 10 mM Tris-HCl pH 7.5, 5 mM NaCl, 1 mM CaCl2, room temperature, 1 h; 0.01 µM labeled 30 bp dsRNA, 0.1-4 µM enzyme; recombinant protein; protein details: C-terminal His6; label: 32P end label (33P in Methods for the substrate).

The exact form of at least one protein or probe is not confirmed. At least one verdict was read from the data and is not stated in words by the source.

For “CGAUACCGUCGACCUCGAGGGGGGGCCCGG / CCGGGCCCCCCCUCGAGGUCGACGGUAUCG [30 bp dsRNA (30f/30r)]”, the binding result is reported as “binds”.
